Measurements taken from the supplement of paper PMC12819154, “High-throughput peptide-centric local stability assay extends protein–ligand identification to membrane proteins, tissues and bacteria” (Nature Structural & Molecular Biology, 2025).
The other results are listed elsewhere or left out. Most values lie at the level of the controls, where differences are scatter.

Amino acid sequences for entries named in this document (tags omitted). A change or cut given only in a name is not applied to a line headed by its entry.
UniProt Q8VE11: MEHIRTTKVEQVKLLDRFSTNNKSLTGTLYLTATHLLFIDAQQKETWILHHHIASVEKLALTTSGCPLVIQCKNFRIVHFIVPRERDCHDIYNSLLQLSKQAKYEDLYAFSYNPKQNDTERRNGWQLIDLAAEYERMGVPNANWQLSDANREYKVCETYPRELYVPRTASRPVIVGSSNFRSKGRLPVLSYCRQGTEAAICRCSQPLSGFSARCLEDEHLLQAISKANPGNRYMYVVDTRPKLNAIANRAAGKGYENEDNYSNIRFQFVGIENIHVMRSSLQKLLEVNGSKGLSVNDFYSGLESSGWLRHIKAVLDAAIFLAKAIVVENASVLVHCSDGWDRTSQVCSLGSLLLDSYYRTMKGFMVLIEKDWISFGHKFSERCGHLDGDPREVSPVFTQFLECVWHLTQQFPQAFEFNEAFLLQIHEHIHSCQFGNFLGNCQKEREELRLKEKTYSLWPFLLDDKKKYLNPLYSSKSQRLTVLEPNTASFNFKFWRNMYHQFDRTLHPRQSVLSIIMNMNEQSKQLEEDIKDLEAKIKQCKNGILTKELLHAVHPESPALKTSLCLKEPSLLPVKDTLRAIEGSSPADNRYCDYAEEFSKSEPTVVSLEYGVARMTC
UniProt Q8R5H6: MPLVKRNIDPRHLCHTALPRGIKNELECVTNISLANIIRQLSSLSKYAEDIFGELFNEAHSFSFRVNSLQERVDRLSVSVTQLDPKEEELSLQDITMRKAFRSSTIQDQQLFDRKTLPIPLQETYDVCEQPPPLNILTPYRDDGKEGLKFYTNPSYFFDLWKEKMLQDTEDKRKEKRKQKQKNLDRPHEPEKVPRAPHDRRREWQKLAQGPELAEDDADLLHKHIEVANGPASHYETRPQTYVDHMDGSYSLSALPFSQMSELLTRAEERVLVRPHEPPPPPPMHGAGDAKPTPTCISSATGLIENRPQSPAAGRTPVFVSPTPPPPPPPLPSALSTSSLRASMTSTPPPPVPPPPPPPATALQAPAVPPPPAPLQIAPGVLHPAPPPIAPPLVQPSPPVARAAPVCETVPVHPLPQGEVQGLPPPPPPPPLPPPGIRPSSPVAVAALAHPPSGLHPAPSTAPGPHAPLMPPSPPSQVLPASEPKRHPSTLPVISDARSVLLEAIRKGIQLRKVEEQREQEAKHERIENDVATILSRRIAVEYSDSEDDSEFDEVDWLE
UniProt Q8VEL2: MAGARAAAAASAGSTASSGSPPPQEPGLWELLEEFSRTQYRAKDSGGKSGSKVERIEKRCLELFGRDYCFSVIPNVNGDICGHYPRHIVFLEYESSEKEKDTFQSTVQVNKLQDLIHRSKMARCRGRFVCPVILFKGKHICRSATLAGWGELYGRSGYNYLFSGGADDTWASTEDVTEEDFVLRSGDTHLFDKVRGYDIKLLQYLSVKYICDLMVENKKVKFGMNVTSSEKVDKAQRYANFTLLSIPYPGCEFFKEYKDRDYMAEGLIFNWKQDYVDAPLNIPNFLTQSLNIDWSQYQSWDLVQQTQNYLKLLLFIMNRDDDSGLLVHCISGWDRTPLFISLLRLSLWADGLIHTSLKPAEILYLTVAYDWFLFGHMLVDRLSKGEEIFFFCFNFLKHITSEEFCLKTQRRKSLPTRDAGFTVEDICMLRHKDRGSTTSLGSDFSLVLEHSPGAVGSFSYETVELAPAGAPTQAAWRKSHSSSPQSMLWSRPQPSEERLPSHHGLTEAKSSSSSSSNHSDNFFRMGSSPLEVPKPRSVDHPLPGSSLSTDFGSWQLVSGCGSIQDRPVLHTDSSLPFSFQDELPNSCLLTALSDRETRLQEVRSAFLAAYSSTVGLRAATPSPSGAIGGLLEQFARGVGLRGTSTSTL
UniProt Q8VCR3: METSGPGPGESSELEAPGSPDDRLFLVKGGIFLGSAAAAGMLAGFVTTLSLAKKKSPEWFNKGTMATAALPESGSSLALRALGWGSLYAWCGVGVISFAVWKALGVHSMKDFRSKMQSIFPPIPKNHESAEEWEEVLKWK
UniProt Q8VCA8: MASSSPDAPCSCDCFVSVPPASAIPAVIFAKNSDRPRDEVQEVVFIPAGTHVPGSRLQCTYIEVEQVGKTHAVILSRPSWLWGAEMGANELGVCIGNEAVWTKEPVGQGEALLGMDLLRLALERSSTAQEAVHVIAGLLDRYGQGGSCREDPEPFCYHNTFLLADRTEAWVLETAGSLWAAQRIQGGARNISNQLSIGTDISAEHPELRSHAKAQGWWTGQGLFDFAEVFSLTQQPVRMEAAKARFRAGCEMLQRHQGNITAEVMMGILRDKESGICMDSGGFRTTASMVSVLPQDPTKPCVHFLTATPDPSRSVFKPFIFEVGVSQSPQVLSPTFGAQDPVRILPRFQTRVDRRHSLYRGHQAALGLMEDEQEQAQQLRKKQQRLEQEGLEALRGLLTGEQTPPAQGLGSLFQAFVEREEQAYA
UniProt Q8VDK1: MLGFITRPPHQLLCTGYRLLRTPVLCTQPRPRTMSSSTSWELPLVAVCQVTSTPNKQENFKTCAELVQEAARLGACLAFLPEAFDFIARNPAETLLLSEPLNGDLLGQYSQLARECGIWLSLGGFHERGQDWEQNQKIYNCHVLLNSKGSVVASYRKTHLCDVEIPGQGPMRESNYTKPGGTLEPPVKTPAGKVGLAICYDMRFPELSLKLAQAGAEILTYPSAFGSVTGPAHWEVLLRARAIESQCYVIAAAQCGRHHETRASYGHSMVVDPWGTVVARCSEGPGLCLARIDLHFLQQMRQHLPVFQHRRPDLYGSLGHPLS
UniProt Q8R5L3: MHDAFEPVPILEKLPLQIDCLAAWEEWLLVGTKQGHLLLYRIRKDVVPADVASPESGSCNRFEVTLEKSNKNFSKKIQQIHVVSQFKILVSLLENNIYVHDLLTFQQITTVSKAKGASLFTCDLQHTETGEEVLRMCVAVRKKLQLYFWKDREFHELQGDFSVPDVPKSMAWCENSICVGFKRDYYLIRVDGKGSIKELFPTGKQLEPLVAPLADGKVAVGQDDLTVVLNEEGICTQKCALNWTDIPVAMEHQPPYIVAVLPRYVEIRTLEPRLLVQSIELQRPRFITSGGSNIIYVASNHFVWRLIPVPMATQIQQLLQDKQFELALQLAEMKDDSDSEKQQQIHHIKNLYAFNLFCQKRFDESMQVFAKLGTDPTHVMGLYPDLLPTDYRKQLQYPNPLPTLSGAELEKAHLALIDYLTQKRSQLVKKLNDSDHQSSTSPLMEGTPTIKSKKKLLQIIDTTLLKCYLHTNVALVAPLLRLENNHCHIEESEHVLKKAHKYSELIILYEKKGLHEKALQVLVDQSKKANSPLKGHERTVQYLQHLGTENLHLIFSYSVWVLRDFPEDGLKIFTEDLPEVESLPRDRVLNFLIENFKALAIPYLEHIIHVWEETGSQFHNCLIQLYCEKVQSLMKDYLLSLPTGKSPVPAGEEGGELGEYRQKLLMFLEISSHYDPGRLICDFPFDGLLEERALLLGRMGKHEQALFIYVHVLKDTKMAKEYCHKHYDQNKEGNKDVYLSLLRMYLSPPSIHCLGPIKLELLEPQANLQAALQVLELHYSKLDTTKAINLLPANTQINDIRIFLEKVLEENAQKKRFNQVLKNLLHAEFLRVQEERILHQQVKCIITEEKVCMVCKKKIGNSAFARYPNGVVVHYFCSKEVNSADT
UniProt Q8VD31: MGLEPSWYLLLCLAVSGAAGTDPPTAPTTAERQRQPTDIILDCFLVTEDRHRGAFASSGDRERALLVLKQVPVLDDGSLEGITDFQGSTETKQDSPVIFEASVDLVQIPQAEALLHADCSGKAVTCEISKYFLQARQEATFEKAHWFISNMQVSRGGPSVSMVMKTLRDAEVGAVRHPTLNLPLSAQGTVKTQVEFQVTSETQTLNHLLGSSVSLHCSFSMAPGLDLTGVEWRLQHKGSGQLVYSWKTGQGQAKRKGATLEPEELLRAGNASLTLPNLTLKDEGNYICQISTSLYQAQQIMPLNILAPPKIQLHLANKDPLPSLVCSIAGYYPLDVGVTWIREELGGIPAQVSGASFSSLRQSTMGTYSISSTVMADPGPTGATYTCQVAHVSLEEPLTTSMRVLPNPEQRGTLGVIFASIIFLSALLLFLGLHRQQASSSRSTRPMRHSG
UniProt Q8VDS8: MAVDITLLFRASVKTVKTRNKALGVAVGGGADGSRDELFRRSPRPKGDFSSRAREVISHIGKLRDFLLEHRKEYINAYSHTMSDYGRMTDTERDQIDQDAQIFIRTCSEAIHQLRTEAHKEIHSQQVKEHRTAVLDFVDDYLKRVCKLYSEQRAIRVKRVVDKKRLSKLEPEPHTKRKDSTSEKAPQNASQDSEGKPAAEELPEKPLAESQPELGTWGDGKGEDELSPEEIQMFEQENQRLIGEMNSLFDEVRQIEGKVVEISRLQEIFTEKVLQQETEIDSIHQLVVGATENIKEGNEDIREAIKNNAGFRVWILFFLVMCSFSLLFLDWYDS
UniProt Q8VE38: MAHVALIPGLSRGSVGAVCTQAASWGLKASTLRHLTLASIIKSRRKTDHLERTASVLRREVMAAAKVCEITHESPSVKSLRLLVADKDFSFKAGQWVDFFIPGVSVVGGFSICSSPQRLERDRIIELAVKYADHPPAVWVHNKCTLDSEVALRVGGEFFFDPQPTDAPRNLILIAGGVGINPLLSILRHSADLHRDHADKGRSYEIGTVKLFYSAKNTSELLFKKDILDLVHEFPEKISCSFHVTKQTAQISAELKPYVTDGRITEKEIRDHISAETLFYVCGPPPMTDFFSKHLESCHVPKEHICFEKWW
UniProt Q8VDC0: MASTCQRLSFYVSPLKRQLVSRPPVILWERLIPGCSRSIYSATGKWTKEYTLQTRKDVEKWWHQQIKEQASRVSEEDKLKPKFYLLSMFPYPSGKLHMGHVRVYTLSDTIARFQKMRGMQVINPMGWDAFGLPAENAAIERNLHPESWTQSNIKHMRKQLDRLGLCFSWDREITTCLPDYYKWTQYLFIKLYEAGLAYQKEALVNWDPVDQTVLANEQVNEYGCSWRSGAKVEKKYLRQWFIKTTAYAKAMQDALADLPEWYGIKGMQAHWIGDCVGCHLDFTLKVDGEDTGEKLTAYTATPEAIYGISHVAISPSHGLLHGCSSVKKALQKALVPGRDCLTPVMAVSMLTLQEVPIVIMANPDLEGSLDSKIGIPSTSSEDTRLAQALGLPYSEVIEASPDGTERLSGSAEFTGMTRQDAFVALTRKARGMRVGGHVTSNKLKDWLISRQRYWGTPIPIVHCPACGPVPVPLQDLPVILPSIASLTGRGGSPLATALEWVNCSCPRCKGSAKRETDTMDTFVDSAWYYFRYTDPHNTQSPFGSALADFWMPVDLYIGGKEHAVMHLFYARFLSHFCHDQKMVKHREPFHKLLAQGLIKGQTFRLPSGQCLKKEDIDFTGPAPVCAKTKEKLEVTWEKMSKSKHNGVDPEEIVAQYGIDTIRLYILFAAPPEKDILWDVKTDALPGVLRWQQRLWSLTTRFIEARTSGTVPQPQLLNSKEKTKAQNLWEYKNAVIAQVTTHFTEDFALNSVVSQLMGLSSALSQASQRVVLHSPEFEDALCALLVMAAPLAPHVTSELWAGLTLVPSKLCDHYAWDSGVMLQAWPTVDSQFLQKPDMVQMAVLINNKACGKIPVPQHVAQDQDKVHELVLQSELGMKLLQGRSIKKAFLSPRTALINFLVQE
UniProt Q8R516: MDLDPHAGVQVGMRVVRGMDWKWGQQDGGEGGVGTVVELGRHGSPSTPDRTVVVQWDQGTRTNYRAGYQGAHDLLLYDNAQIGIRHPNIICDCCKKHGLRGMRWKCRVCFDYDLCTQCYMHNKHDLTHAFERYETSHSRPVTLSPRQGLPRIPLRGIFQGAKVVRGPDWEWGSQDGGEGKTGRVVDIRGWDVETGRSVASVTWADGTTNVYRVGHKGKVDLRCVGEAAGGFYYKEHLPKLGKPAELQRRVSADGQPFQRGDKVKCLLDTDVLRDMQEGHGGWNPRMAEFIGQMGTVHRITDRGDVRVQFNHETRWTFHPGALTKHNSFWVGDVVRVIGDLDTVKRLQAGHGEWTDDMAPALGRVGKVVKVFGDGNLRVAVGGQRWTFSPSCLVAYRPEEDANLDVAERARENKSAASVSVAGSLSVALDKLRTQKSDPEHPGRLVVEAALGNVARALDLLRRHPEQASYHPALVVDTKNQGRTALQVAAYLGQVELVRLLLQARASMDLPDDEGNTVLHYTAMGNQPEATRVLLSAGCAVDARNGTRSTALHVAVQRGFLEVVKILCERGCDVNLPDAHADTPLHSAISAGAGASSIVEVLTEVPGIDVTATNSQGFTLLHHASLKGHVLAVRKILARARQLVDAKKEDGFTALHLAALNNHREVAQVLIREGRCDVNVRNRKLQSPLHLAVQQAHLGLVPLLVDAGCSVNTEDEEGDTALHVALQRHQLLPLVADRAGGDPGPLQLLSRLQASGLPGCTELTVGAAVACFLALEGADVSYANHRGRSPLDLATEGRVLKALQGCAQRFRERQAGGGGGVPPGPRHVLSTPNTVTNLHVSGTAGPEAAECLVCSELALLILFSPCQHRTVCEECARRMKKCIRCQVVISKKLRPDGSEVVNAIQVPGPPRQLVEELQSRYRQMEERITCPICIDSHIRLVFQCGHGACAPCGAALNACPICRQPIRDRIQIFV

These targets were tested with CN[C@@H]1C[C@H]2O[C@@](C)([C@@H]1OC)n1c3ccccc3c3c4c(c5c6ccccc6n2c5c31)C(=O)NC4 [staurosporine] (assay: log2 fold change of tryptic peptide abundance, ligand vs vehicle (limited proteolysis) (log2 ratio); higher = more trypsin-susceptible (destabilized)). Conditions: ligand concentration: 20 uM; sample: mouse liver crude lysate; replicate design: treated separately.
“UniProt Q8VE11 (peptide sequence: TSLCLKEPSLLPVK, peptide start residue: 562)” was tested, and the log2 fold change was 0.203.
Work on “UniProt Q8R5H6 (peptide sequence: NLDRPHEPEKVPR, peptide start residue: 183)” yielded a log2 fold change of -0.169.
In the case of “UniProt Q8R2U6 (peptide sequence: MKFKPNQTR, peptide start residue: 1)”, the log2 fold change is reported as 0.452.
In the case of “UniProt Q8VDI1 (peptide sequence: AKPVYLVPQR, peptide start residue: 97)”, the log2 fold change is reported as 0.57.
“UniProt Q8R570 (peptide sequence: ELLLSQPGTAANIPSHVTR, peptide start residue: 100)” showed a log2 fold change of 0.198.
“UniProt Q8VCV1 (peptide sequence: KTYCFDAFPSIDKISK, peptide start residue: 239)” showed a log2 fold change of -0.228.
With “UniProt Q8R404 (peptide sequence: EYSKEGWEYLKEHSK, peptide start residue: 105)” the log2 fold change was 0.397.
Target “UniProt Q8VEL2 (peptide sequence: DTFQSTVQVNK, peptide start residue: 101)” has a log2 fold change of 0.664.
Target “UniProt Q8VE62 (peptide sequence: FCLESER, peptide start residue: 390)” has a log2 fold change of 0.0708.
“UniProt Q8VCR3 (peptide sequence: MQSIFPPIPK, peptide start residue: 116)” gave a log2 fold change of 0.522.
“UniProt Q8VDP3 (peptide sequence: ELEAEGTKLELALRK, peptide start residue: 931)” was tested, and the log2 fold change was -0.329.
In the case of “UniProt Q8VCA8 (peptide sequence: GHQAALGLMEDEQEQAQQLRK, peptide start residue: 361)”, the log2 fold change is reported as 0.231.
For “UniProt Q8VCG3 (peptide sequence: LVTCTGYHQVR, peptide start residue: 198)”, the log2 fold change was 0.57.
In the case of “UniProt Q8VE80 (peptide sequence: TLSFSHDGK, peptide start residue: 271)”, the log2 fold change is reported as -0.193.
In the case of “UniProt Q8R5G7 (peptide sequence: FGTMPLLPIR, peptide start residue: 1342)”, the log2 fold change is reported as -0.407.
Work on “UniProt Q8VDK1 (peptide sequence: ECGIWLSLGGFHER, peptide start residue: 115)” yielded a log2 fold change of -0.279.
With “UniProt Q8R361 (peptide sequence: GSHGTSSSEAVPGQEELSK, peptide start residue: 390)” the log2 fold change was 0.065.
“UniProt Q8VEM8 (peptide sequence: GSTASQVLQR, peptide start residue: 291)” showed a log2 fold change of 0.183.
Target “UniProt Q8R2W9 (peptide sequence: ETVSKEDLAR, peptide start residue: 282)” has a log2 fold change of -0.122.
“UniProt Q8VC65 (peptide sequence: KLHLLSRPQDGEAE, peptide start residue: 249)” showed a log2 fold change of 0.103.
Target “UniProt Q8VEH8 (peptide sequence: VNIHEYYLGNMLAK, peptide start residue: 144)” has a log2 fold change of -0.275.
“UniProt Q8R5L3 (peptide sequence: NLLHAEFLR, peptide start residue: 823)” showed a log2 fold change of 0.163.
With “UniProt Q8R3V5 (peptide sequence: HMLDLQK, peptide start residue: 270)” the log2 fold change was 0.23.
“UniProt Q8VD31 (peptide sequence: QRQPTDIILDCFLVTEDRHR, peptide start residue: 33)” gave a log2 fold change of -0.247.
“UniProt Q8VC10 (peptide sequence: FVQGGALAAASSLLKK, peptide start residue: 457)” was tested, and the log2 fold change was -0.354.
Work on “UniProt Q8VE42 (peptide sequence: AAYSGHIDVVR, peptide start residue: 114)” yielded a log2 fold change of 0.347.
“UniProt Q8VDS8 (peptide sequence: LEPEPHTKR, peptide start residue: 169)” was tested, and the log2 fold change was -0.4.
Work on “UniProt Q8VBW5 (peptide sequence: DHMCHPHGIMIIEDPTTLNKPEK, peptide start residue: 425)” yielded a log2 fold change of 0.463.
Work on “UniProt Q8VE38 (peptide sequence: NTSELLFKK, peptide start residue: 217)” yielded a log2 fold change of -0.327.
“UniProt Q8VCL2 (peptide sequence: HWAGQGQR, peptide start residue: 34)” showed a log2 fold change of 0.161.
For “UniProt Q8VDC0 (peptide sequence: LKDWLISR, peptide start residue: 443)”, the log2 fold change was 0.384.
For “UniProt Q8VD04 (peptide sequence: QLKEGVPGAAGAHVDGELLR, peptide start residue: 116)”, the log2 fold change was 0.678.
With “UniProt Q8R516 (peptide sequence: STALHVAVQR, peptide start residue: 548)” the log2 fold change was -0.443.
Work on “UniProt Q8VCM3 (peptide sequence: RMCFVDPVR, peptide start residue: 86)” yielded a log2 fold change of 0.246.
In the case of “UniProt Q8VDH1 (peptide sequence: EGIDQSYQLLR, peptide start residue: 399)”, the log2 fold change is reported as -0.371.
For “UniProt Q8R3F5 (peptide sequence: YTHPQHIR, peptide start residue: 304)”, the log2 fold change was 0.228.
